PubChem BioAssay AID1224830 | NIAID, 2016

Purpose: 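Genes whose knock-down alters the TNF-alpha reporter response to LPS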 (primary screen)
Cells: human THP-1 monocytic leukaemia cells, TNF dual-luciferase reporter clone, PMA-differentiated to macrophage-like cells
Reagent: siRNA pool against human genes, 50 nM
Duration: LPS for 4 h, given about 3 days after siRNA transfection
Conditions: bacterial LPS (TLR4 ligand), 10 ng/ml
Measurement: 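Ratio of firefly to renilla light, scaled to the plate median and expressed as a robust z-score per replicate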
Scale: TNF reporter robust z-score: higher = stronger TNF reporter response to LPS
Rule for the call: 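Each well counts as active if its z-score is over 2.8 or under -1.5; controls are left without a call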
Here is an unselected part of about 18,000 reagents tested. About 2,900 of all reagents (16%) were called active. 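Calls are made per well; low scores hint the gene aids the LPS response, high scores that it dampens it.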 A number with no mark means an inactive call. Repeated entries: four replicate wells of each siRNA pool.

For SSX6P (SSX family member 6, pseudogene), what does the deposit list?
TNF reporter robust z-score: -0.69

Which result is listed for SSX6P (SSX family member 6, pseudogene)?
TNF reporter robust z-score: 0.38

With SSX6P (SSX family member 6, pseudogene), how do the results read?
TNF reporter robust z-score: -0.81

What did the screen give for SSX6P (SSX family member 6, pseudogene)?
TNF reporter robust z-score: -0.34

For GRIA1 (glutamate ionotropic receptor AMPA type subunit 1), how do the results read?
TNF reporter robust z-score: 0.08

Which result is listed for GRIA1 (glutamate ionotropic receptor AMPA type subunit 1)?
TNF reporter robust z-score: 1.29

For GRIA1 (glutamate ionotropic receptor AMPA type subunit 1), what does the deposit list?
TNF reporter robust z-score: 0

With GRIA1 (glutamate ionotropic receptor AMPA type subunit 1), how do the results read?
TNF reporter robust z-score: 0.9

What did the screen give for TRIM59 (tripartite motif containing 59)?
TNF reporter robust z-score: 1.34

What is on record for TRIM59 (tripartite motif containing 59)?
TNF reporter robust z-score: -0.24

How did the screen score TRIM59 (tripartite motif containing 59)?
TNF reporter robust z-score: 1.44

With TRIM59 (tripartite motif containing 59), what does the deposit list?
TNF reporter robust z-score: 1.8

What is on record for UBL4A (ubiquitin like 4A)?
TNF reporter robust z-score: 0.81

Which result is listed for UBL4A (ubiquitin like 4A)?
TNF reporter robust z-score: 0.52

For UBL4A (ubiquitin like 4A), what was measured?
TNF reporter robust z-score: -0.82

How did the screen score UBL4A (ubiquitin like 4A)?
TNF reporter robust z-score: 1.47

What is on record for CBLL2 (Cbl proto-oncogene like 2)?
TNF reporter robust z-score: -1.36

What did the screen give for CBLL2 (Cbl proto-oncogene like 2)?
TNF reporter robust z-score: -0.22

What did the screen give for CBLL2 (Cbl proto-oncogene like 2)?
TNF reporter robust z-score: -1.23

For CBLL2 (Cbl proto-oncogene like 2), what does the deposit list?
TNF reporter robust z-score: -1.92 (active)

With EPHB1 (EPH receptor B1), what was measured?
TNF reporter robust z-score: -0.76

Which result is listed for EPHB1 (EPH receptor B1)?
TNF reporter robust z-score: 0.28

For EPHB1 (EPH receptor B1), what does the deposit list?
TNF reporter robust z-score: 0.01

For EPHB1 (EPH receptor B1), how do the results read?
TNF reporter robust z-score: -0.14

What did the screen give for CA8 (carbonic anhydrase 8 (inactive))?
TNF reporter robust z-score: 0.03

With CA8 (carbonic anhydrase 8 (inactive)), what was measured?
TNF reporter robust z-score: 0.34

For CA8 (carbonic anhydrase 8 (inactive)), what was measured?
TNF reporter robust z-score: -0.71

How did the screen score CA8 (carbonic anhydrase 8 (inactive))?
TNF reporter robust z-score: -0.67

What is on record for RD3 (RD3 regulator of GUCY2D)?
TNF reporter robust z-score: -0.97

For RD3 (RD3 regulator of GUCY2D), what does the deposit list?
TNF reporter robust z-score: -0.42

With RD3 (RD3 regulator of GUCY2D), what does the deposit list?
TNF reporter robust z-score: -1.06

With RD3 (RD3 regulator of GUCY2D), how do the results read?
TNF reporter robust z-score: -0.81
